# According to publication PMC7819943, “Rice protein-binding microarrays: a tool to detect cis-acting elements near promoter regions in rice”:
# The chains behind the UniProt entries cited, without tags or fusion partners.
# UniProt Q0JBA9, entry or part of it: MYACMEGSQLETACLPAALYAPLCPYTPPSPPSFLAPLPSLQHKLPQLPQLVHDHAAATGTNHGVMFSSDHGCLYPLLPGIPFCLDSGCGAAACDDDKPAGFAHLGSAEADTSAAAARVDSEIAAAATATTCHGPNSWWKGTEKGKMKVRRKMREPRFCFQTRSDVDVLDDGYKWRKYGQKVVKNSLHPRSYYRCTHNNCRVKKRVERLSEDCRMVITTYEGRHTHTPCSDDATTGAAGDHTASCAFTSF
# The list shows a part of the results.
# Target: OsWRKY34 (Oryza sativa, UniProt Q0JBA9 1-250)
# Assay: protein-binding microarray (RPBM); PBS, 2% BSA, 51.3 ng/ul salmon testes DNA, 50 uM zinc acetate, 200 nM TF, 25 C, 1 h; high values mean tight binding
# Details: protein: recombinant; tags: N-terminal polyhistidine and DsRed monomer fusion (pET32a); label: CyDye5-dUTP incorporated in the synthesized complementary strand; 3' TTTTT single-stranded linker to array surface; dsDNA, one strand shown
# Outline: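 The binding signal for each feature is its fluorescence intensity in arbitrary units. An Axon 4000B scanner was used to read a custom Agilent array that had been made double-stranded with Cy5-dUTP primer extension, blocked with 2% BSA, incubated at 25 °C for 1 h with 200 nM protein in PBS, 2% BSA, salmon testes DNA and 50 µM zinc acetate, and washed. The protein was an N-terminal polyhistidine–DsRed transcription factor fusion from E. coli BL21-CodonPlus, purified on Ni–NTA.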
row,Sequence,binding signal
1,GATTCCTTCCTAGCTGTCACGTCATAGACTTCCCGAAGACCGGAGTCACCTAGTGCAG,8540 fluorescence intensity (a.u.)
2,CTTTGACCCTGTTGACTGGCTCCCCACTTATCAACCACACCGGAGTCACCTAGTGCAG,11000 fluorescence intensity (a.u.)
3,TGTTTTCTACTTTGTTCATAGGGGTGAGGGTACGTTCGTTCGGAGTCACCTAGTGCAG,10600 fluorescence intensity (a.u.)
4,TTTCCTTTTTCCTACTATCATTATATTCCATTCTATTTTTCGGAGTCACCTAGTGCAG,11000 fluorescence intensity (a.u.)
5,CGCCCTAACTTTGATCATCTGTCTTATTTAAATAAATTTTCGGAGTCACCTAGTGCAG,10100 fluorescence intensity (a.u.)
6,GGCTGGATGGTGCTCTCCTAAAATTTTGCTTCTTTTACTGCGGAGTCACCTAGTGCAG,9930 fluorescence intensity (a.u.)
7,TGGGAGCAATGAATCTGCCACTGTCACCCCACCATTTTTTCGGAGTCACCTAGTGCAG,8970 fluorescence intensity (a.u.)
8,TTATTTCTGCCATTGCAGTTTCGCCGCTATATCGGTTTGTCGGAGTCACCTAGTGCAG,8170 fluorescence intensity (a.u.)
9,TTTGTATAGTTGGGTGTGAAGAATGTCCGGTTTTGTGGTTCGGAGTCACCTAGTGCAG,8060 fluorescence intensity (a.u.)
10,ACCCTCTGAGATCACCCTGACCGATCTCACCCGTCACCGACGGAGTCACCTAGTGCAG,10100 fluorescence intensity (a.u.)
11,CATTTCTTTAACTTCGTCTTGTGTAGCTTCAACAGTTTGCCGGAGTCACCTAGTGCAG,11500 fluorescence intensity (a.u.)
12,ACATTTCTTTGTGATTGGATCGCCACCCTGGTGCCACGTGCGGAGTCACCTAGTGCAG,9060 fluorescence intensity (a.u.)
13,GAGAGGAAGAGGGGAAGGGCATGTGGGTCTCACATTTTTACGGAGTCACCTAGTGCAG,10800 fluorescence intensity (a.u.)
14,CGGAAACCCAACCGCCCGTCCGCCAGCCCAGCCGCTGTGACGGAGTCACCTAGTGCAG,10500 fluorescence intensity (a.u.)
15,ATTCCGCGCGCACCACACTGCCGGTCTCGTCGACATCGATCGGAGTCACCTAGTGCAG,11000 fluorescence intensity (a.u.)
16,ACCGTGTTGATAGAAATTTGTCATAGTCTCACATATTTTCCGGAGTCACCTAGTGCAG,10000 fluorescence intensity (a.u.)
17,TTGTCTTCTCTGCATCCTTTCCTTGCCGCCGGCCAATTTACGGAGTCACCTAGTGCAG,8880 fluorescence intensity (a.u.)
18,CCCCTAGCACCCTCCTCCCACCTTGGCCACCCAGTTTACACGGAGTCACCTAGTGCAG,8070 fluorescence intensity (a.u.)
19,AGTTTGCACAAAACCTGGCTTCTGTCTGTGGTCTATATAACGGAGTCACCTAGTGCAG,9270 fluorescence intensity (a.u.)
20,ATTAATTTTTTGCCAGTGGATCCATATGTTATAGACACATCGGAGTCACCTAGTGCAG,8250 fluorescence intensity (a.u.)
21,GTGCTTGTCCTGCCTGCTTCGCTGACCTGTATAGCTTGACCGGAGTCACCTAGTGCAG,9260 fluorescence intensity (a.u.)

# Looked up above:
# binding signal with TGGGAGCAATGAATCTGCCACTGTCACCCCACCATTTTTTCGGAGTCACCTAGTGCAG reads 8970 fluorescence intensity (a.u.)
# binding signal with CTTTGACCCTGTTGACTGGCTCCCCACTTATCAACCACACCGGAGTCACCTAGTGCAG reads 11000 fluorescence intensity (a.u.)
# binding signal with TGTTTTCTACTTTGTTCATAGGGGTGAGGGTACGTTCGTTCGGAGTCACCTAGTGCAG reads 10600 fluorescence intensity (a.u.)

# The list goes on.

row,Sequence,binding signal
1,CCGTTCTGACGTCGCCGTCGCCGCCGCAGATGACATTATTCGGAGTCACCTAGTGCAG,8420 fluorescence intensity (a.u.)
2,AGGAGCATATTTATTTGGTATTTCAAGGTCGTTTTTTTTGCGGAGTCACCTAGTGCAG,8240 fluorescence intensity (a.u.)
3,CCGACCCAGTCACGTCCTCGTCTCGTCTCCGTTTCGTGTTCGGAGTCACCTAGTGCAG,10200 fluorescence intensity (a.u.)
4,GCGTCGAGGGCGGGCGGCAGCGCTTGGTGGCGGTGGGGCGCGGAGTCACCTAGTGCAG,12400 fluorescence intensity (a.u.)
5,CTCGTTTGAACAATCTCGCGCCCAAAGTCAGACCATGCATCGGAGTCACCTAGTGCAG,10100 fluorescence intensity (a.u.)
6,AAACCCACACACACACAACACATCTCGCCTCCTCCCAAAACGGAGTCACCTAGTGCAG,8240 fluorescence intensity (a.u.)
7,GCCCAATCCGCCTGTCTCTCTCTCGTTCCCCTCCAATCCACGGAGTCACCTAGTGCAG,8900 fluorescence intensity (a.u.)
8,TAGCGTTTTGTGGATATGGGGTGTGTTTGGTTGCTCGTATCGGAGTCACCTAGTGCAG,9960 fluorescence intensity (a.u.)
9,TATTCACGGCTGCACTTATTTTGGGACGGAGGTAGTATTTCGGAGTCACCTAGTGCAG,8070 fluorescence intensity (a.u.)
10,GGTCTTGTGGATGGTGGATATGCAGGAGGCACTGCAGAGGCGGAGTCACCTAGTGCAG,8090 fluorescence intensity (a.u.)
11,TCCATCATGTGCATATACGAGGTTCTTATCGTGATCTACCCGGAGTCACCTAGTGCAG,8510 fluorescence intensity (a.u.)
12,CGTTCCGCCTCGCCGCCTCGGGGCTCGGCCTCGTCCTCGTCGGAGTCACCTAGTGCAG,9310 fluorescence intensity (a.u.)
13,TCCCCAGTGGAATCGCACAGTTTTTCTATTTTTGGGTCTTCGGAGTCACCTAGTGCAG,9350 fluorescence intensity (a.u.)
14,CATTTTCGTGGGCTTTGATTATTATTCGTCGAAACTTCCCCGGAGTCACCTAGTGCAG,11800 fluorescence intensity (a.u.)
15,GCGCGCCGCGCTCACGGGTGGGTCAAGGCAAGGGGAAGGGCGGAGTCACCTAGTGCAG,9400 fluorescence intensity (a.u.)
16,CACCACCCTAGCCTCGCAGCAACCATCTACGCATCTCGCTCGGAGTCACCTAGTGCAG,8060 fluorescence intensity (a.u.)
17,TTCGAGCACATCTACTTCGCGCTCCCAAACTCCGTGGTGTCGGAGTCACCTAGTGCAG,8080 fluorescence intensity (a.u.)
18,CCGTTGTTTAACCCGTGATTTGAATCTCACCCTACCACGACGGAGTCACCTAGTGCAG,9640 fluorescence intensity (a.u.)
19,TCGTTCAACGCTTGCTTTTGCTTACTAGGCCGCTATTGCACGGAGTCACCTAGTGCAG,8570 fluorescence intensity (a.u.)
20,CATAATTCACAATATCTTTGACCACATAGGACATGTTACCCGGAGTCACCTAGTGCAG,8170 fluorescence intensity (a.u.)
21,CCCGAAAACCCACTTTTATCACTTCACCTCTCGTAGTTACCGGAGTCACCTAGTGCAG,9620 fluorescence intensity (a.u.)
